Assay: GC-MS headspace release profile of Tropical Fruit perfume in shampoo, 1/100 dilution in water
Type: physicochemical
Method: A 10 gram sample of formulation and fragrance was added to an empty 1000 ml pyrex beaker. This beaker was then filled with 1000 ml of 120 F tap water. Beaker with diluted shampoo sample was then immediately placed into a semi-enclosed plexiglass chamber.
Headspace Sampling: Once beaker was placed into chamber a Carboxan SPME field fiber was held at the top-side opening of the chamber over the beaker containing the sample. […] […] Top of plexiglass chamber was held open for entire 5 minutes of headspace sampling.

CCCCCCCC1CCC(=O)O1 (centres unmarked) [GAMMA UNDECALACTONE]
GC Abundance (headspace at 40 seconds): 4000 | GC Abundance (headspace at 50 seconds): 7000

Reference: patent US7446079B2, “Perfumes for rinse-off systems” (Givaudan Fragrances Corporation, priority 2005, dated 2008)
